# Measured values: PubChem BioAssay AID248 (DTP/NCI, 2004)
# The list is a part of this screen's results and no random one: it gathers tests that were run many times, whatever their T/C, doses with no T/C, and many T/C values between a quarter and a half above the control. Further doses and runs are listed elsewhere. T/C: endpoint of the treated group in % of that of the vehicle group. Some entries give survivors of the animals treated and no T/C: the source holds a T/C of zero for them, seemingly a mark for toxic or unscored doses. Some survivor counts are full or nearly so, which does not show that the dose was tolerated: survival well below the control is almost never listed, so the zero probably covers shortened survival too. Survivors were counted at the toxicity check, usually on the fifth day, unless a day is given; later deaths do not show. Schedules are NCI's codes, taken here to give the interval after Q, in days (D) or hours (H), and the number of doses after X. Some entries were tested several times; the values are given in rising order. Additions like (4×) count equal records among those shown. For survival time, the PubChem record calls one and a half times the control and up active, and a quarter to a half above the control has no call in these data; cut-offs in other NCI protocols can differ. Some schedules carry Z or #; the key to these is not given. Some T/C values are followed by the survivors on the day toxicity was checked, most often the fifth; where none is given, no animal had died by that day.
# System: L1210 leukemia ip in BDF1 mice, survival T/C
# Assay: NCI In Vivo Anticancer Drug Screen. Data for tumor model L1210 Leukemia (intraperitoneal) in B6D2F1 (BDF1) mice
# Settings: T/C endpoint: mean survival time, higher T/C = longer survival
# [1] = dose: 200.0 mg/kg/injection, schedule: Q01DX009 (ip), vehicle: Klucel (hydroxypropylcellulose) (HPC)
# [2] = dose: 200.0 mg/kg/injection, schedule: Q04DX003 (ip), vehicle: Klucel (hydroxypropylcellulose) (HPC)
# [3] = dose: 400.0 mg/kg/injection, schedule: Q04DX003 (ip), vehicle: Klucel (hydroxypropylcellulose) (HPC)
# [4] = dose: 100.0 mg/kg/injection, schedule: Q04DX002 (ip), vehicle: Klucel (hydroxypropylcellulose) (HPC)
# [5] = dose: 200.0 mg/kg/injection, schedule: Q04DX002 (ip), vehicle: Klucel (hydroxypropylcellulose) (HPC)
# [6] = dose: 400.0 mg/kg/injection, schedule: Q04DX002 (ip), vehicle: Klucel (hydroxypropylcellulose) (HPC)
# [7] = dose: 400.0 mg/kg/injection, schedule: Q04DX003 (ip), vehicle: saline
# [8] = dose: 400.0 mg/kg/injection, schedule: Q01DX009 (ip), vehicle: Klucel (hydroxypropylcellulose) (HPC)
# [9] = dose: 400.0 mg/kg/injection, schedule: Q01DX009 (ip), vehicle: saline with Tween-80
# [10] = dose: 100.0 mg/kg/injection, schedule: Q01DX009 (ip), vehicle: saline with Tween-80
# [11] = dose: 200.0 mg/kg/injection, schedule: Q01DX009 (ip), vehicle: saline with Tween-80
# [12] = dose: 400.0 mg/kg/injection, schedule: Q01DX001 (ip), vehicle: saline with Tween-80
# [13] = dose: 100.0 mg/kg/injection, schedule: Q04DX003 (ip), vehicle: saline with Tween-80
# [14] = dose: 200.0 mg/kg/injection, schedule: Q01DX001 (ip), vehicle: saline with Tween-80
# [15] = dose: 200.0 mg/kg/injection, schedule: Q04DX003 (ip), vehicle: saline with Tween-80
# [16] = dose: 400.0 mg/kg/injection, schedule: Q04DX003 (ip), vehicle: saline with Tween-80
smiles,measurement,setting,value
NC(=O)NC1C(c2ccccc2)=NOC1C(N)=O (stereo unspecified),survivor count,[1],2 of 6
same,survivor count,[2],2 of 6
same,survivor count,[3],1 of 6
NC(CSS(=O)(=O)O)=NCCCc1c[nH]c2ccccc12,survivor count,[4],3 of 3
same,survivor count,[5],0 of 3
same,survivor count,[6],0 of 3
CCN(C)CCC(CNC(=O)CN(CC)CC)(c1cccc2ccccc12)C(C)C (stereo unspecified),survivor count,[7],0 of 6
CC(C)(C)NC(=O)Nc1nccs1,survivor count,"dose: 400.0 mg/kg/injection, schedule: Q01DX009 (ip), vehicle: other",0 of 6
NNC(=S)NCCc1ccccc1,survivor count,"dose: 100.0 mg/kg/injection, schedule: Q01DX009 (ip), vehicle: Klucel (hydroxypropylcellulose) (HPC)",3 of 6 and 4 of 6
same,survivor count,[1],0 of 6
same,survivor count,[8],0 of 6
CC1C(C(=O)c2ccc(-c3ccccc3)cc2)N1c1ccccc1 (stereo unspecified),survivor count,"dose: 200.0 mg/kg/injection, schedule: Q01DX001 (ip), vehicle: Klucel (hydroxypropylcellulose) (HPC)",3 of 3
CC1CCC(C(O)(C(=O)O)C2CCCCC2)CC1 (stereo unspecified),survivor count,"dose: 300.0 mg/kg/injection, schedule: Q01DX001 (ip), vehicle: other",2 of 6
COc1ccc(C(=O)NC(=S)Nc2cccc([N+](=O)[O-])c2)cc1,survivor count,[9],0 of 3
CNC(=O)Oc1ccc(-c2ccccc2)cc1Cl,T/C,[10],"88, 103 [2 of 3 alive], 105, 106 % of control [4 of 6 alive]"
same,survivor count,[11],3 of 3
same,survivor count,[9],3 of 6 and 3 of 3
CSc1ccc(NC(=O)c2ccc(Cl)cc2Cl)cc1,survivor count,"dose: 400.0 mg/kg/injection, schedule: Q01DX009 (ip), vehicle: saline + alcohol",0 of 6 and 1 of 3
CCCSc1ncnc2nc[nH]c12,T/C,"dose: 125.0 mg/kg/injection, schedule: Q01DX009 (ip), vehicle: saline",126 % of control
same,survivor count,"dose: 250.0 mg/kg/injection, schedule: Q01DX009 (ip), vehicle: saline",2 of 6
CCOC(=O)c1c(C)[nH]c2c1C(=O)C(=O)C=C2,survivor count,"dose: 200.0 mg/kg/injection, schedule: Q01DX001 (ip), vehicle: saline",1 of 4
same,survivor count,"dose: 400.0 mg/kg/injection, schedule: Q01DX001 (ip), vehicle: saline",0 of 4
COC1OC(COC(=S)SCC2OC(OC)C(OC)C(OC)C2OC)C(OC)C(OC)C1OC (stereo unspecified),survivor count,[4],3 of 3
COC(=O)CCS,survivor count,"dose: 75.0 mg/kg/injection, schedule: Q01DX001 (ip), vehicle: saline",0 of 6
same,survivor count,"dose: 150.0 mg/kg/injection, schedule: Q01DX001 (ip), vehicle: saline",6 of 6
same,survivor count,"dose: 300.0 mg/kg/injection, schedule: Q01DX001 (ip), vehicle: saline",0 of 6
CCOC(=O)C1(N)CCCC1,T/C,"dose: 53.0 mg/kg/injection, schedule: Q01DX Z (ip), vehicle: carboxymethylcellulose (CMC)",130 and 138 % of control
Cc1ccc(S(=O)(=O)N(CCCc2c(N)nc(N)nc2-c2ccccc2)c2ccccc2)cc1,survivor count,[7],0 of 6
CCCSc1nccc2n[nH]nc12,survivor count,[12],1 of 6
Cc1ccc(C)c(NC(=O)Oc2ccc(Cl)cc2C)c1,survivor count,[10],3 of 3
same,survivor count,[13],6 of 6
same,survivor count,[14],6 of 6
same,survivor count,[15],6 of 6
same,survivor count,[16],6 of 6
NC(CCl)=NCC1CCCC1,survivor count,[4],2 of 3
same,survivor count,[5],0 of 3
same,survivor count,[6],0 of 3
CC(=O)NC1=C(N2CC2(C)C)C(=O)C(NC(C)=O)=C(N2CC2(C)C)C1=O,survivor count,"dose: 100.0 mg/kg/injection, schedule: Q04DX003 (ip), vehicle: Klucel (hydroxypropylcellulose) (HPC)",1 of 6
same,survivor count,[2],1 of 6
same,survivor count,[3],1 of 6
O=C(O)c1ccc(N2C(=O)C=CC2=O)cc1 (tested in a mixture with another compound),survivor count,"dose: 25.0 mg/kg/injection, schedule: Q01DX009 (ip), vehicle: acetone",2 of 6
same,survivor count,"dose: 50.0 mg/kg/injection, schedule: Q01DX009 (ip), vehicle: acetone",1 of 6
C=CCSc1nccc(=O)[nH]1,survivor count,[8],2 of 6
C=CC[As](=O)(O)c1ccccc1Cl,survivor count,"dose: 25.0 mg/kg/injection, schedule: Q04DX003 (ip), vehicle: saline with Tween-80",6 of 6
same,survivor count,"dose: 50.0 mg/kg/injection, schedule: Q04DX003 (ip), vehicle: saline with Tween-80",3 of 6
same,survivor count,[13],0 of 6 (2×)
same,survivor count,[15],0 of 6
same,survivor count,[16],0 of 6
Cc1ccc(S(=O)(=O)OCC(O)C(OC(=O)c2ccccc2)C(OC(=O)c2ccccc2)C(CO)OC(=O)c2ccccc2)cc1 (stereo unspecified),survivor count,[14],3 of 3
same,survivor count,[12],3 of 3
CN(C)/C=N\N(c1ccccc1)c1ccccc1,survivor count,"dose: 400.0 mg/kg/injection, schedule: Q04DX002 (ip), vehicle: saline with Tween-80",1 of 3
Cn1c(CN(CCCl)CCCl)nc2c1c(=O)[nH]c(=O)n2C,T/C,"dose: 178.0 mg/kg/injection, schedule: Q01DX001 (ip), vehicle: carboxymethylcellulose (CMC)",126 % of control
same,T/C,"dose: 400.0 mg/kg/injection, schedule: Q01DX001 (ip), vehicle: carboxymethylcellulose (CMC)",126 [3 of 4 alive] and 131 % of control
same,survivor count,"dose: 600.0 mg/kg/injection, schedule: Q01DX001 (ip), vehicle: carboxymethylcellulose (CMC)",4 of 4
CCOC(=O)C1=C(C)NC(C)=C(C(=O)OCC)C1c1ccccc1Cl,survivor count,[10],6 of 6
same,survivor count,[11],3 of 6
same,survivor count,[9],0 of 6
Nc1nc(Nc2ccc(NC=O)cc2)c(NC=O)c(=O)[nH]1,survivor count,"dose: 100.0 mg/kg/injection, schedule: Q01DX001 (ip), vehicle: saline",6 of 6
COC1=CC(=O)C2=C(C1=O)C1(C)CCCC(C)(COC(C)=O)C1CC2 (stereo unspecified),survivor count,"dose: 100.0 mg/kg/injection, schedule: Q01DX001 (ip), vehicle: carboxymethylcellulose (CMC)",4 of 4
CC(C)C[CH2][Pb]([Cl])([CH2]CC(C)C)[CH2]CC(C)C,survivor count,"dose: 0.1 mg/kg/injection, schedule: Q04DX002 (ip), vehicle: other",3 of 3
same,survivor count,"dose: 0.4 mg/kg/injection, schedule: Q04DX002 (ip), vehicle: other",3 of 3
same,survivor count,"dose: 0.4 mg/kg/injection, schedule: Q04DX003 (ip), vehicle: other",2 of 6
same,survivor count,"dose: 0.8 mg/kg/injection, schedule: Q04DX003 (ip), vehicle: other",0 of 6
same,survivor count,"dose: 1.56 mg/kg/injection, schedule: Q04DX003 (ip), vehicle: other",2 of 6
same,survivor count,"dose: 3.13 mg/kg/injection, schedule: Q04DX003 (ip), vehicle: other",1 of 6
same,survivor count,"dose: 6.25 mg/kg/injection, schedule: Q04DX003 (ip), vehicle: other",0 of 6
same,survivor count,"dose: 12.5 mg/kg/injection, schedule: Q04DX003 (ip), vehicle: other",0 of 6
same,survivor count,"dose: 25.0 mg/kg/injection, schedule: Q04DX003 (ip), vehicle: other",0 of 6
CCNC(=NC)c1ccc(NC(=O)c2ccc(C(=O)Nc3ccc(C(=NC)NCC)cc3)cc2)cc1,T/C,"dose: 4.4 mg/kg/injection, schedule: Q01DX Z (ip), vehicle: carboxymethylcellulose (CMC)",136 % of control
CCCP(C)(C)=S,survivor count,[6],1 of 3
Nc1ncnc(N)c1NC(=O)c1cc(Cl)cc(Cl)c1,survivor count,[2],6 of 6
